{"sequences": {"note": "Protein sequences, listed by entry. Tags and fused reporters are not part of them. Residues count along the entry.", "UniProt P26041": "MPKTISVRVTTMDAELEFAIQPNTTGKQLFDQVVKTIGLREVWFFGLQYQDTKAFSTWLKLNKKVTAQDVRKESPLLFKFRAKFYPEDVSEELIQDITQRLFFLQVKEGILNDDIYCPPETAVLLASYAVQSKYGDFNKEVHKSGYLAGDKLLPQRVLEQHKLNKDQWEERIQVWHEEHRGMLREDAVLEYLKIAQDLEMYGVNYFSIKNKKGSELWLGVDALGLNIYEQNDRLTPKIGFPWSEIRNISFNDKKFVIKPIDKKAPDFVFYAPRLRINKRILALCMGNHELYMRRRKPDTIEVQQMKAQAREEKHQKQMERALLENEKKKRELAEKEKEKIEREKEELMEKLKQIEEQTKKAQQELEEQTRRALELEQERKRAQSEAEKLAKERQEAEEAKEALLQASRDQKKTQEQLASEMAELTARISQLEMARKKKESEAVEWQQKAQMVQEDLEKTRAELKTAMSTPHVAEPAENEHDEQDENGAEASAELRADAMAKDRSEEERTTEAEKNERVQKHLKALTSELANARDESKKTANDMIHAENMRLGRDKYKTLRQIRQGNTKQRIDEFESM", "UniProt P11276, residues 33-2477": "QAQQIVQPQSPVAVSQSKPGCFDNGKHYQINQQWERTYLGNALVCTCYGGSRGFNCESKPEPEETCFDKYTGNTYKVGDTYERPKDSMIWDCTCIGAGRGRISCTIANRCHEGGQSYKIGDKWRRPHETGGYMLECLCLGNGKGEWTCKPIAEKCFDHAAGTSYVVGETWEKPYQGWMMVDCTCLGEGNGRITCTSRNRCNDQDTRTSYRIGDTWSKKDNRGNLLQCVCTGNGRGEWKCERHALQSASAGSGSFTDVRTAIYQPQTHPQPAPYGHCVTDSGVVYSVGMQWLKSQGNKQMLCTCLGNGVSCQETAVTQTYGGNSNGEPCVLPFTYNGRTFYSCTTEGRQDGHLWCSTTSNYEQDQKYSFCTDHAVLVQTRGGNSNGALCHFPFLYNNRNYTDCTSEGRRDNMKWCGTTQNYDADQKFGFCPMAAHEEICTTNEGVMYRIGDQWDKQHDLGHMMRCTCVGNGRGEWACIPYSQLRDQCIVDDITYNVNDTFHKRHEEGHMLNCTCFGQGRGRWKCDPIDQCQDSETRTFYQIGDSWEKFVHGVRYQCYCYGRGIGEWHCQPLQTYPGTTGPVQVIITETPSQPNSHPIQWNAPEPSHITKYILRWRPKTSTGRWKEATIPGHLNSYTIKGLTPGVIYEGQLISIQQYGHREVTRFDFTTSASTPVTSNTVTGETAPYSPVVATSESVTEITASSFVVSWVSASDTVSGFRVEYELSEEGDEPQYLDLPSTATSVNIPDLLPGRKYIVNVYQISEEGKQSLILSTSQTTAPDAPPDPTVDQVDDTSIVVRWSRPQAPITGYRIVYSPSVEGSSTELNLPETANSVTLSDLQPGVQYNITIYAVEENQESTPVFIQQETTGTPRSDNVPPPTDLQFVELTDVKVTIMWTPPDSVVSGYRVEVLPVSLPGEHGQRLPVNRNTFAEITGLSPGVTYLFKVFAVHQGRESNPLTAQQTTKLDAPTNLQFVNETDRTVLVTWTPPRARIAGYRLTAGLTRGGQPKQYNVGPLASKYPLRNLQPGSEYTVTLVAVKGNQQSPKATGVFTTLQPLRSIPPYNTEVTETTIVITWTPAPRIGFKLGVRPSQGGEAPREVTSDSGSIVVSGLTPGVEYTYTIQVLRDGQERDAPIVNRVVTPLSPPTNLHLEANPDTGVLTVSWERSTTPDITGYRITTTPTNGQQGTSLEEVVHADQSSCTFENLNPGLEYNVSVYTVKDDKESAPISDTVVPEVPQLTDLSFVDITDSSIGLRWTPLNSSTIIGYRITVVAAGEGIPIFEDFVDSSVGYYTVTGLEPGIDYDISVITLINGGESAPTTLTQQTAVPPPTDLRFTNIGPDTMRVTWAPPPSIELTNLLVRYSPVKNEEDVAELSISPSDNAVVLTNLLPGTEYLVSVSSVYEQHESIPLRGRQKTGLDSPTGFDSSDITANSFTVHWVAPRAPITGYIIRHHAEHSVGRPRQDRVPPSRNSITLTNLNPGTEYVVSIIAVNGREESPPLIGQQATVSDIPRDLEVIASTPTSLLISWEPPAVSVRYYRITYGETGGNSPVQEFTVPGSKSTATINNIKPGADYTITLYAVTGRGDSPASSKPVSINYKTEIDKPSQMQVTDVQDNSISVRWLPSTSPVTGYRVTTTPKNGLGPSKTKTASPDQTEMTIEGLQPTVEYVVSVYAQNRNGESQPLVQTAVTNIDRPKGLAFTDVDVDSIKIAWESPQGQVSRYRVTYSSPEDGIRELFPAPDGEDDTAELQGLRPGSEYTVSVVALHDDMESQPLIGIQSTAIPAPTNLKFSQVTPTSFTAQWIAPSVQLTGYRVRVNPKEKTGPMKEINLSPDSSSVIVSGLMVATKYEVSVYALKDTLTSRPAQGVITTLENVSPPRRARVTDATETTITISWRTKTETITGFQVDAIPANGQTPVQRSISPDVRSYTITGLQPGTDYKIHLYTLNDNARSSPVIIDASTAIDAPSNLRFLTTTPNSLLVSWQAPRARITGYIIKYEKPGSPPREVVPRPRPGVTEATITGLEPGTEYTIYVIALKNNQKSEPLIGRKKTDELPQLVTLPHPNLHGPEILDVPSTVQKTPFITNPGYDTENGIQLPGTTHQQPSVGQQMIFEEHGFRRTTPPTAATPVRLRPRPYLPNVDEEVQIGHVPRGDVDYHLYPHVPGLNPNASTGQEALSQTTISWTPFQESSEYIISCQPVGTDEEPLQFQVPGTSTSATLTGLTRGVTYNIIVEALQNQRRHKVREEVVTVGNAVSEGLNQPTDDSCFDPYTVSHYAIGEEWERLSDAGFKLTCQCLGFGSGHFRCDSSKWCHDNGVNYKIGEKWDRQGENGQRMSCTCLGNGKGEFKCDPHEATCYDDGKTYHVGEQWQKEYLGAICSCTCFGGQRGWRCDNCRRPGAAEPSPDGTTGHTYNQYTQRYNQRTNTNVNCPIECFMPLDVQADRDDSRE"}, "source": "paper PMC8692912", "target": "moesin (MSN) (mouse (endogenous in EO771)) (UniProt P26041)", "assay": "co-IP; rabbit antibody to MSN on protein A sepharose, incubated overnight with EO771 extracellular matrix proteins; washed three times with PBS; blot for FN1; rabbit IgG as negative control", "note": "Results are given in words; binding and its absence hold for the method and conditions named. In cells and extracts the contact can be indirect. Some results given as binding are weak or reduced against the parent protein; the word gives no strength."}
{"substance": "fibronectin 1 (FN1) (from UniProt P11276 33-2477)", "values": [{"measurement": "binding", "value": "binds"}]}
